Measured values from US20170150719A1, “FUNGICIDAL PYRAZOLES AND THEIR MIXTURES” (E I DU PONT DE NEMOURS AND COMPANY, priority 2010, published 2017).
At least one read-out could not be matched to a standard name with certainty.

Tests used:
Botrytis cinerea = assay: Test A: tomato Botrytis, preventive spray on tomato seedlings, visual disease rating; conditions: 100 = 100% disease control, 0 = no control relative to controls, rating without asterisk
[1] = system: Blumeria graminis f. sp. tritici; assay: Test I: wheat powdery mildew, preventive spray on wheat seedlings, visual disease rating; conditions: 100 = 100% disease control, rating without asterisk
Septoria tritici = assay: Test F: wheat leaf blotch, preventive spray on wheat seedlings, visual disease rating; type: in vivo; conditions: 100 = 100% disease control, rating without asterisk
Excerpt: A hyphen (-) indicates no test results.

[2] = system: Puccinia recondita f. sp. tritici; assay: Test H: wheat leaf rust, preventive spray on wheat seedlings, visual disease rating; conditions: 100 = 100% disease control, rating without asterisk

SMILES | Test A rating (% disease control) (Botrytis cinerea) | Test I rating (% disease control) [1] | Test F rating (% disease control) (Septoria tritici) | Test H rating (% disease control) [2]
Cc1nn(C)c(Nc2c(F)cc(F)cc2Br)c1-c1ccc(F)cc1Br [Compound 195, N-(2-bromo-4,6-difluorophenyl)-4-(2-bromo-4-fluorophenyl)-1,3-dimethyl-1H-pyrazol-5-amine] | 99% | 100% | 100% | 100%
Cc1nn(C)c(Nc2c(F)cc(F)cc2Cl)c1-c1ccc(C#N)cc1F [Compound 238, 4-[5-[(2-chloro-4,6-difluorophenyl)amino]-1,3-dimethyl-1H-pyrazol-4-yl]-3-fluorobenzonitrile] | 100% | 100% | 100% | 100%
Cc1nn(C)c(Nc2c(F)cccc2Cl)c1-c1ccc(F)cc1Cl [Compound 239, 4-(2-chloro-4-fluorophenyl)-N-(2-chloro-6-fluorophenyl)-1,3-dimethyl-1H-pyrazol-5-amine] | 100% | 99% | 100% | 100%
Cc1nn(C)c(Nc2c(F)cccc2Cl)c1-c1ccc(F)cc1Br [Compound 240, 4-(2-Bromo-4-fluorophenyl)-N-(2-chloro-6-fluorophenyl)-1,3-dimethyl-1H-pyrazol-5-amine] | 100% | 100% | 100% | 100%
Cc1nn(C)c(Nc2c(F)cccc2Br)c1-c1ccc(F)cc1Cl [Compound 241, N-(2-bromo-6-fluorophenyl)-4-(2-chloro-4-fluorophenyl)-1,3-dimethyl-1H-pyrazol-5-amine] | 100% | 100% | 100% | 100%
Cc1nn(C)c(Nc2c(F)cccc2Br)c1-c1ccc(F)cc1Br [Compound 244, 4-(2-bromo-4-fluorophenyl)-N-(2-bromo-6-fluorophenyl)-1,3-dimethyl-1H-pyrazol-5-amine] | 100% | 100% | 100% | 100%
Cc1nn(C)c(Nc2c(F)cccc2Br)c1-c1ccc(F)cc1F [Compound 245, N-(2-bromo-6-fluorophenyl)-4-(2,4-difluorophenyl)-1,3-dimethyl-1H-pyrazol-5-amine] | 100% | 100% | 100% | 100%
Cc1nn(C)c(Nc2c(F)cccc2Br)c1-c1c(F)cccc1F [Compound 247, N-(2-bromo-6-fluorophenyl)-4-(2,6-difluorophenyl)-1,3-dimethyl-1H-pyrazol-5-amine] | 100% | 100% | 100% | 100%
Cc1cccc(F)c1Nc1c(-c2ccc(F)cc2Cl)c(C)nn1C [Compound 252, 4-(2-chloro-4-fluorophenyl)-N-(2-fluoro-6-methylphenyl)-1,3-dimethyl-1H-pyrazol-5-amine] | 100% | 100% | 100% | 100%
Cc1cccc(Cl)c1Nc1c(-c2ccc(F)cc2Cl)c(C)nn1C [Compound 253, 4-(2-chloro-4-fluorophenyl)-N-(2-chloro-6-methylphenyl)-1,3-dimethyl-1H-pyrazol-5-amine] | 100% | 100% | 100% | 100%
Cc1cccc(Br)c1Nc1c(-c2ccc(F)cc2Cl)c(C)nn1C [Compound 254, N-(2-bromo-6-methylphenyl)-4-(2-chloro-4-fluorophenyl)-1,3-dimethyl-1H-pyrazol-5-amine] | 100% | 100% | 100% | 100%
Cc1cccc(Br)c1Nc1c(-c2ccc(F)cc2F)c(C)nn1C [Compound 265, N-(2-bromo-6-methylphenyl)-4-(2,4-difluorophenyl)-1,3-dimethyl-1H-pyrazol-5-amine] | 100% | 100% | 100% | 99%
Cc1cccc(Br)c1Nc1c(-c2ccc(F)cc2Br)c(C)nn1C [Compound 266, 4-(2-bromo-4-fluorophenyl)-N-(2-bromo-6-methylphenyl)-1,3-dimethyl-1H-pyrazol-5-amine] | 99% | 99% | 100% | 99%
Cc1cccc(F)c1Nc1c(-c2ccc(F)cc2Br)c(C)nn1C [Compound 267, 4-(2-bromo-4-fluorophenyl)-N-(2-fluoro-6-methylphenyl)-1,3-dimethyl-1H-pyrazol-5-amine] | 100% | 100% | 100% | 100%
Cc1cccc(F)c1Nc1c(-c2ccc(F)cc2F)c(C)nn1C [Compound 268, 4-(2,4-difluorophenyl)-N-(2-fluoro-6-methylphenyl)-1,3-dimethyl-1H-pyrazol-5-amine] | 100% | 100% | 100% | 99%
Cc1cccc(Cl)c1Nc1c(-c2ccc(F)cc2F)c(C)nn1C [Compound 269, N-(2-chloro-6-methylphenyl)-4-(2,4-difluorophenyl)-1,3-dimethyl-1H-pyrazol-5-amine] | 100% | 100% | 100% | 99%
Cc1nn(C)c(Nc2c(F)cccc2Cl)c1-c1ccc(F)cc1F [Compound 275, N-(2-chloro-6-fluorophenyl)-4-(2,4-difluorophenyl)-1,3-dimethyl-1H-pyrazol-5-amine] | 100% | 100% | 100% | 95%
